Substitutions are numbered along the chain they refer to. No constants are given. Whether binding was seen depends on the method and setting. Binding can be weak; no strength is given.

The target in assay [1] is cynomolgus Gal10-His (WGS isoform) (cynomolgus). The assay can be described thus: SPR Biacore 3000, two concentrations on captured cynomolgus Gal10-His.
Assay [2] shares this target. The assay can be described thus: SPR, summary of Example 4.
Assay [3] has the same target. Description: Cyno cross-reactivity, overview table.
Assay [4] has the same target. The assay can be described thus: SPR Biacore 3000 on captured cynomolgus Gal10-His.
Assay [5] shares this target. Description: conclusion from the examples.

B1: g7B07 (human Fab) (Fab, V domains shown)
VH: EVQLLESGGGLVQPGGSLRLSCAASGFTFRSYDMSWVRQAPGKGLEWVSAIKNGGGITYYADSVKGRFTISRDNSKNTLYLQMNSLRAEDTAVYYCATTHGIGTLGFGSWGQGTLVTVSS
VL: SYELTQPLSVSVALGQTARITCDGNNIGSKSAQWYQQKPGQAPVLVIYADEYRPEGIPERFSGSNSGNTATLTISRAQAGDEADYYCQVWDGSAAVFGGGTQLTVL
Consider B1, for which, in assay [1], the binding result is on record as “binds”.

B2: g23H09 (Fab) (Fab, V domains shown)
VH: B1 VH with K52A, N53Q, G54F, G55Q, G56H, I57W
VL: B1 VL
B2: the binding result in assay [2], in assay [3] and in assay [4] was “binds” each time.

B3: g20H09 (Fab) (Fab, V domains shown)
VH: EVQLLESGGGLVQPGGSLRLSCAASGFTFRSYDMSWVRQAPGKGLEWVSAIKWHRITYYADSVKGRFTISRDNSKNTLYLQMNSLRAEDTAVYYCATTHGIGTLGFGSWGQGTLVTVSS
VL: B1 VL
As for B3, the binding result in assay [2] and in assay [4] was “binds” each time.

B4: g24F02 (human Fab) (Fab, V domains shown)
VH: EVQLLESGGGLVQPGGSLRLSCAASGFTFSSYAMSWVRQAPGKGLEWVSAINNGGGSTSYADSVKGRFTISRDNSKNTLYLQMNSLRAEDTAVYYCAKGLRVGVLGFDYWGQGTLVTVSS
VL: B1 VL
For the molecule B4, the binding entry in assay [4] is reported as “binds”.

B5: g24F02_N53A (human Fab) (Fab, V domains shown)
VH: B4 VH with N53A
VL: B1 VL
B5: the binding result in assay [2], in assay [5], in assay [3] and in assay [4] was “binds” in each case.

B6: g7B07_N53A (human Fab) (Fab, V domains shown)
VH: B1 VH with N53A
VL: B1 VL
For the molecule B6, in assay [1], the binding entry is reported as “binds”.
